For some of these results: The name of at least one read-out is uncertain. Some results were stated once for a whole list of compounds, not compound by compound.
Experiments:
[1] = Microsomal stability assay, human liver microsomes; format: in vitro ADME; settings: Table 2
Description: (§1) 4 μL of 1 mM test compound at a final concentration of 10 μM dissolved in DMSO/ACN/Methanol/Ethanol was preincubated at 37° C. for 5 minutes on a digital heating shaking dry bath (Fischer scientific, Pittsburgh, Pa.) in a mixture containing 282 μL of water, 80 μL of phosphate buffer (0.5 M, pH 7.4), 20 μL of NADPH Regenerating System Solution A (BD Bioscience, San Jose, Calif.) and 4 μL of NADPH Regenerating System Solution B (BD Bioscience, San Jose, Calif.) in a total volume of 391.2 μL. Following preincubation, the reaction was initiated by addition of 8.8 μL of either human liver microsomes (BD Gentest, San Jose, Calif.), mouse liver microsomes (Life technologies, Rockford, Ill.), at a protein concentration of 0.5 mg/mL. Aliquots of 50 μL were taken at time intervals of 0 (without microsomes), 10, 20, 30, 40, 50 and 60 minutes. Each aliquot was added to 100 μL of cold acetonitrile solution containing 1 μM/2 μM internal standard. This was followed by sonication for 10 seconds and centrifugation at 10,000 rpm for 5 minutes. 100 μL of the supernatant was transferred into Spin-X HPLC filter tubes (Corning Incorporated, NY) and centrifuged at 13,000 rpm for 5 minutes. […] The ratio of the peak areas of the internal standard and test compound was calculated for every time point and the natural log of the ratio were plotted against time to determine the linear slope (k). […] All experiments were repeated three times in duplicates.

[2] = Microsomal stability assay, mouse liver microsomes; format: in vitro ADME; settings: Table 2
Description: as §1

[3] = Rapid equilibrium dialysis assay, free fraction

Compound	stability in Human liver microsomes [1]	stability in Mouse liver microsomes [2]	free fraction in rat brain tissue [3] [%]
[2H]C([2H])([2H])Oc1ccc2c3nn(-c4ccc(OC)cc4)c(=O)c-3c[nH]c2c1 [RV-I-029, 7-Methoxy-d3-2-(4-methoxyphenyl)-2,5-dihydro-3H-pyrazolo[4,3-c]quinolin-3-one]	more than 90%	more than 90%	
[2H]C([2H])([2H])Oc1ccc(-n2nc3c4ccc(OC([2H])([2H])[2H])cc4[nH]cc-3c2=O)cc1 [DK-I-60-3, 7-Methoxy-d3-2-(4-methoxy-d3-phenyl)-2,5-dihydro-3H-pyrazolo[4,3-c]quinolin-3-one]	more than 90%	more than 90%	
[2H]C([2H])([2H])Oc1ccc(-n2nc3c4ccc(OC)cc4[nH]cc-3c2=O)cc1 [DK-I-56-1, 7-Methoxy-2-(4-methoxy-d3-phenyl)-2,5-dihydro-3H-pyrazolo[4,3-c]quinolin-3-one]	more than 90%	more than 90%	19.45

Reference: US10865203B2, “Ligands selective to alpha 6 subunit-containing GABAA receptors and their methods of use” (UWM Research Foundation, Inc., priority 2015, dated 2020)
